From PMC10848004 (Saudi Pharmaceutical Journal : SPJ, 2024)

Key:
[1] = system: human corneal epithelial cell line (HCEC); experiment: Cell viability; format: cell-based; details: 96 h, read-out: IC50 HCEC
HT-29 cells = experiment: Cell viability; format: cell-based; details: Homo sapiens, HT-29, 96 h, read-out: IC50 HT-29

IC50 (HT-29 cells): > 100 µM
Compound: CC(=O)Nc1nnc(S(N)(=O)=O)s1 [AAZ, Acetazolamide]
IC50 [1]: 88 µM
